This note sets out measurements from PubChem BioAssay AID1347423 (Functional Genomics Laboratory (NCATS/FGL), 2020).

The whole screen tested about 52,000 sequences, of which about 210 (0.4%) were called active.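 The calls were made as follows: active = gene whose silencing raises cell survival under the drug, median off-target-corrected z-score across its silencing RNAs 2 or more; inactive = the rest.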 The list shows a part of the results.

The nature of this experiment: Resistance to Poly (ADP-Ribose) Polymerase inhibitor: Gene Identification via Genome-wide siRNA Screen. Particulars: mouse BRCA2 R2336H ES cells, olaparib, CellTiter-Glo viability; hits give high values. The procedure, abridged:
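Genome-wide siRNA screen (3 siRNAs/gene, 20 nM) in mouse ES cells carrying hypomorphic BRCA2 R2336H; olaparib 500 nM added 48 h post-transfection, CellTiter-Glo viability 72 h later. Normalized to plate-median negative control; MAD z-scores, gene median, seed-adjusted.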
Background: Cellular ATP, detected with luciferase, serves as a proxy for viable cell number.
For the sequence GCAGUUCAAGCAACGACGCTT against Pou3f1, the z-score is inactive: 0.405.

For GGCAUGAACUCAACAGAUUTT against Tnfrsf21, the z-score was inactive: -1.56.

In the case of GGCCAUACUAUCUAUGCAATT against Ablim1, the z-score is inactive: 0.156.

On to GGUCGAGUAUGCCUACAGUTT against Tcfl4, for which the z-score was inactive: -1.66.

On to GGAAGAAGCGAAGGGCACUTT against Ndufb7, for which the z-score was inactive: -1.47.

Regarding GCUUCGACGGUGUAUGGAATT against Cav3, the z-score was inactive: -2.17.

In the case of GGAGUUAAAGUCACUGUUUTT against Mapkap1, the z-score was inactive: 0.619.

GCGUGCUGGUUUUCUGAUUTT against BC019206: the z-score was inactive: -1.24.

Turning to GGCUUUCUAAGAGACUAUUTT against Wnt7a, the z-score was inactive: 1.05.

With GCCUAUGCCCUGCAUAAACTT against Hdac8, the z-score was inactive: 0.227.

For the sequence GGUGAGAAAAGUGCAAGGCTT against Rps6kb2, the z-score was inactive: -1.9.

For the sequence GGAAAUUUGCUCAUUCUAATT against Olfr1204, the z-score is inactive: -0.324.

For the sequence CGACGAAGCGACCAUUCUUTT against Igj, the z-score is inactive: 0.192.

Consider GGAUUCAGGAACACGGAGATT against D17H6S53E, for which the z-score was inactive: 1.9.

For the sequence GCAAUAACAGAUCUCGUUUTT against B3galt5, the z-score is inactive: 0.983.

As to GGCUCUCACAGAUCCUAAATT against Abcd3, the z-score is inactive: 0.182.

On to GGAACCUGUAAAAGCCUCUTT against Il1f6, for which the z-score was inactive: 0.139.

Regarding CCAGAUGUUGGAUAAAACGTT against Fbxw10, the z-score was inactive: -0.204.

For the sequence CCAAUGCUGAGGAGUCUUCTT against BC030335, the z-score was inactive: -1.83.

In the case of GGGUUUUCCGCAUCUUCAATT against Kcna3, the z-score was inactive: -0.362.

Turning to “GGAGAUAACAGAUCUGUUUTT against 1810073G14Rik”, the z-score is inactive: -0.0931.

CCCUGUGUUCACGUUUUACTT against Mrps33: the z-score was inactive: 1.22.

Consider GGGAUCAAGGCUAGAAGAGTT against Stdp1, for which the z-score was inactive: -0.854.

For the sequence GGACCAAGUACCAGACUGATT against Krt1-4, the z-score is inactive: -1.58.

Take CCCACAGUACAUUCUAAAATT against Arsb: the z-score was inactive: -0.303.

As to CCUAUCCCAAUGAGGAGAATT against Lman2l, the z-score was inactive: -2.06.

For CCCUAACUCAAUGUACCAGTT against Slc27a1, the z-score is inactive: -0.67.

As to “GGAAAGUAAGACCGUAAGUTT against A230072I16Rik”, the z-score was inactive: 0.545.

With GGAAGGAAUUCUUCAACCUTT against Hsd3b2, the z-score is inactive: -0.882.

Turning to “GGAAAACAUUUAAACAGUGTT against 5830406J20Rik”, the z-score is inactive: -0.424.

Regarding GCCAUGUGAUCGAAUCCAGTT against Cyln2, the z-score is inactive: 0.467.

As to GGGAUUGCUACAGAGACUCTT against Gprk6, the z-score is inactive: 1.03.

As for CGUGAAAGGCACAAAAAAGTT against Semcap2, the z-score was inactive: 0.83.

On to GCUGAUGUUAAAUUCGCAGTT against Serpinb3b, for which the z-score is inactive: 1.35.

Regarding “CGAUCAAAGAACCUGAAAGTT against B830021E24Rik”, the z-score was inactive: -1.4.

On to GGAACUAGAAGGUGUUUUATT against Ythdf1, for which the z-score was inactive: 1.2.

Regarding “GGUUCUCCUUGUUUUGCUGTT against 9230107O10Rik”, the z-score is inactive: 0.382.

As to GGAGGGUCUCUUUAAGUUCTT against AI325941, the z-score is inactive: 0.197.

Turning to GGUGAGAUUACUGAAAGAATT against Plod2, the z-score was inactive: -1.53.

Take “GGUGCUGAGAUCGAGUAUGTT against D17Wsu104e”: the z-score is inactive: 0.87.

As for GGAAGGACAUAUUAUCUUGTT against Mga, the z-score was inactive: -1.93.

Consider GGUCUUUUUCUCUUUGCAUTT against Pcdh10, for which the z-score is inactive: 0.257.

With GCAAAGGCCAAAUAUGAGGTT against Dbil5, the z-score is inactive: -0.435.

Consider GGAGAAAAGGGUGCUGAAGTT against Csda, for which the z-score was inactive: 1.21.

CGUGAAUGACCUAGCUGAGTT against Spr: the z-score is inactive: -0.204.

With CCGCCUCGUACAUGAUAUUTT against Mrgpra2, the z-score is inactive: -0.527.

Consider GCAAAAAUUCAACAUCCUGTT against Fbxo4, for which the z-score was inactive: 1.09.

Take AACAGUGCUUUGUGCCAUGTT against Mageb3: the z-score was inactive: 1.93.

Take CCGAGAAAUGCUAUGAAUGTT against Zfp105: the z-score was inactive: 0.488.

GGCAACGGUGAAACUAGACTT against Sh3bp5: the z-score was inactive: 1.41.

In the case of GCCAUGGGUCUCAGAAAGATT against Zxda, the z-score is inactive: -2.17.

With “GGAUACAAGAAACCUUAAGTT against 4632413K17Rik”, the z-score was inactive: -0.248.

In the case of CGCAUUUCAUCGAAUGGAATT against Nlgn2, the z-score is inactive: 1.23.

For “GGCUAAACACAGAAAGGUCTT against B930008I02Rik”, the z-score is inactive: -0.646.

CCUGUUUCGUAGAUUGUUUTT against Snrp116: the z-score was inactive: -1.29.

Consider GAACAAAUGAGGUCCUCAGTT against Sprr2h, for which the z-score is inactive: 0.541.

In the case of GCAACGAUCUGAGAAAAUUTT against Pdzk6, the z-score is inactive: -2.63.

In the case of GGGAUUUCUUAUCCUGAAATT against BC036333, the z-score was inactive: -1.31.

Turning to “GGCAGCACUAGGACACAUATT against 1810019A08Rik”, the z-score is inactive: 0.483.

On to GGCUUACUUACCACAGAAUTT against Mlycd, for which the z-score was inactive: 0.637.

As for GCCAGGAAACGACAAUAAATT against Slc5a11, the z-score was inactive: 0.0258.

For “GCGGAGCGUAUGGAUAUGATT against 3000002G13Rik”, the z-score is inactive: 0.508.

Turning to GGGAUUUCACCACAGACAGTT against Gtf2a1, the z-score is inactive: 0.0824.

Take GUGGCAAGAUGUGAGACUUTT against Rpl4: the z-score is inactive: -1.65.

GGAUGGAUUACUGAAAGUUTT against Wdr35: the z-score was inactive: 0.0396.

CCAAGUUCAUUCUUUUUGCTT against Cobll1: the z-score is inactive: 1.4.

Consider GGUGCCUUUCAUUUUUAACTT against Lamp2, for which the z-score was inactive: 0.427.
